In PubChem BioAssay AID2685 (National Center for Advancing Translational Sciences (NCATS), 2010):
Some of the results follow. These are further read-outs of the screen, such as a control signal, another cell line or another target. No call is given for them. The list favours compounds with an active or inconclusive main result. Potencies come from curve fits of mixed quality, noted in brackets.

Assay: qHTS Assay for Lipid Storage Modulators in Drosophila S3 Cells;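 as to cell number change: cells counted by Cell Tracker Red CMTPX staining in the red channel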
Details: BODIPY lipid droplet fluorescence, 18-24 h; for cell number change: measured here: cell count max response, cells fed with added oleic acid
Method in brief: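 Drosophila S3 cells got compounds at several concentrations plus oleic acid (400 uM solution). Laser-scanning cytometry with 488 nm excitation read lipid droplets at 500-530 nm and cells at 575-640 nm. Percent activity was relative to 20 uM Triacsin C.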

[1] = measured here: lipid fluorescence (Fed channel) AC50, cells fed with added oleic acid
[2] = measured here: cell number channel AC50, cells fed with added oleic acid

## COc1ccc(CC(=O)Nc2cc(Cl)ccc2C(=O)O)cc1
  cell number change: 21.7%
[1]
  AC50: 1.84 µM [falling, partial curve]

## COc1ccc(CCCc2nnc(SCC(=O)Nc3nccs3)n2C)cc1C
  cell number change: -176%
[2]
  AC50: 29.1 µM [falling, single point]
[1]
  AC50: 29.1 µM [falling, single point]

## COc1ccc(NC(=O)CN(C)C(=O)c2cn(-c3ccccc3)nc2-c2ccc(OC)cc2)cc1
  cell number change: -15%
[1]
  AC50: 16.4 µM [rising, partial curve, poor fit]

## COc1cc(OC)cc(C(=O)NNC(=O)CNC(=O)c2cccs2)c1
  cell number change: 37.2%
[2]
  AC50: 29.1 µM [rising, single point]
[1]
  AC50: 25.9 µM [rising, partial curve, poor fit]

## O=C(COC(=O)/C=C/c1cccc(C(F)(F)F)c1)Nc1cccc2ccccc12
  cell number change: -3.29%
[1]
  AC50: 16.4 µM [falling, single point]

## CCCC(=O)Nc1c2c(nn1-c1ccc(C)cc1C)CSC2
  cell number change: -71.1%
[2]
  AC50: 29.1 µM [falling, partial curve, poor fit]
[1]
  AC50: 0.58 µM [rising, partial curve, poor fit]

## O=S(=O)(c1ccc(S(=O)(=O)N2CCCC2)cc1)N1CCCCCC1
  cell number change: -8.65%
[1]
  AC50: 29.1 µM [rising, single point]

## Cc1cc(C)cc(-n2ncc3c2CCCC3NC(=O)CCN2CCCC2=O)c1 (stereo not drawn)
  cell number change: -1.16%
[2]
  AC50: 4.11 µM [falling, single point]

## O=[N+]([O-])c1ccccc1-c1ccc(C(=S)N2CCCCC2)o1
  cell number change: 5.54%
[1]
  AC50: 1.64 µM [rising, partial curve, poor fit]

## CCCn1c(-c2ccc(F)cc2)n[nH]c1=S
  cell number change: -20.6%

## COc1ccc(-n2[nH]c(C)cc2=O)cc1
  cell number change: 11.1%
[1]
  AC50: 0.13 µM [falling, full curve, poor fit]

## CC1CN(C(=O)c2ccccc2NS(=O)(=O)c2cccc([N+](=O)[O-])c2)CC(C)O1 (stereo not drawn)
  cell number change: 13.2%
[2]
  AC50: 6.51 µM [rising, single point]
[1]
  AC50: 0.461 µM [falling, full curve]

## Cc1ccc(CC2C(=O)N(CC(=O)O)C(=O)C2C)cc1 (stereo not drawn)
  cell number change: -8.63%
[1]
  AC50: 29.1 µM [rising, single point]

## CC(=O)Nc1ccc(N(C(=O)CNC(=O)c2ccco2)C(C(=O)NC2CCCC2)c2ccco2)cc1 (stereo not drawn)
  cell number change: 5%
[1]
  AC50: 1.03 µM [falling, single point]

## NC(=O)c1ccsc1NC(=O)CSc1ccccc1F
  cell number change: 26.4%
[1]
  AC50: 3.66 µM [rising, partial curve]

## COc1ccc(N2CCN(C(CNC(=O)C(C)(C)C)c3ccco3)CC2)cc1 (stereo not drawn)
[2]
  AC50: 0.651 µM [falling, single point]

## COc1ccc(C(=O)NNC(=O)C2(C)CC2(Br)Br)cc1 (stereo not drawn)
  cell number change: 11.8%

## CC1Cc2ccccc2N1C(=O)c1ccc2nccnc2c1 (stereo not drawn)
  cell number change: -2.89%
[1]
  AC50: 29.1 µM [rising, partial curve, poor fit]

## Cc1ccc(C)n1-c1sccc1C(=O)O
  cell number change: -23.6%
[1]
  AC50: 18.4 µM [falling, single point]

## COc1ccc(NS(=O)(=O)c2cccc(NC(=O)CCC(=O)c3cccs3)c2)cc1
  cell number change: 14.8%

## CC1(C)CC2CC(C)(CN2C(=O)c2cc(-c3ccccc3)on2)C1 (stereo not drawn)
  cell number change: -6.94%
[1]
  AC50: 6.51 µM [falling, single point]

## Cc1ccc(S(=O)(=O)[N-]c2nc3ccccc3nc2-[n+]2cc(C)cc(C)c2)cc1
  cell number change: 6.83%
[1]
  AC50: 3.66 µM [rising, partial curve, poor fit]

## CC1=NN(C(=O)c2ccccc2F)C(O)(c2ccc(Cl)cc2)C1 (stereo not drawn)
  cell number change: -17.3%
[1]
  AC50: 29.1 µM [falling, single point]

## CC1(C)NC(=O)N(CC(O)CN(c2ccccc2)S(=O)(=O)c2ccc([N+](=O)[O-])cc2)C1=O (stereo not drawn)
  cell number change: -23.2%

## Nc1ccccc1Nc1cc(-c2ccccc2)nn1-c1ccccc1
  cell number change: -25.7%
[1]
  AC50: 14.6 µM [falling, single point]

## CC1CCN(C(=O)CNC(=O)Cc2ccccc2)CC1
  cell number change: 66.8%
[2]
  AC50: 29.1 µM [rising, single point]
[1]
  AC50: 0.461 µM [rising, partial curve, poor fit]

## O=C1CSC(c2ccccc2Cl)N1 (stereo not drawn)
  cell number change: 34%
[2]
  AC50: 1.84 µM [rising, full curve]
[1]
  AC50: 2.06 µM [rising, full curve]

## CCCCCCCCc1c(O)nc(-n2[nH]c(C)c(CCO)c2=O)[nH]c1=O
  cell number change: -31.2%
[2]
  AC50: 4.11 µM [falling, full curve]
[1]
  AC50: 29.1 µM [falling, single point]

## CCC(NC(=O)c1cc(COc2ccc(C)nc2)on1)c1ccc(C)cc1 (stereo not drawn)
  cell number change: -4.86%
[1]
  AC50: 29.1 µM [falling, single point]

## Cc1ccccc1OCCCCn1cnc2ccccc21
  cell number change: -68.3%
[2]
  AC50: 29.1 µM [falling, single point]
[1]
  AC50: 11.6 µM [falling, single point]

## Cc1csc2ncc(C(=O)Nc3ccc(C(F)(F)F)cc3)c(=O)n12
  cell number change: 61%
[2]
  AC50: 0.13 µM [rising, full curve]
[1]
  AC50: 2.59 µM [rising, full curve]

## COC(=O)c1c(NC(=O)c2c(-c3ccccc3Cl)noc2C)sc2c1CCC2
  cell number change: 146%
[2]
  AC50: 0.366 µM [rising, full curve]
[1]
  AC50: 0.146 µM [rising, full curve]

## CCN1C(=O)C(O)(CC(=O)C(C)(C)C)c2cc(Br)ccc21 (stereo not drawn)
  cell number change: 10.6%
[1]
  AC50: 0.82 µM [falling, single point]

## CN(Cc1ccccc1)c1ccc([N+](=O)[O-])cc1C(=O)O
  cell number change: -20.6%

## Cc1ccnc2nc(C(=O)OCCOc3ccccc3)nn12
  cell number change: -7.21%
[1]
  AC50: 0.0259 µM [falling, full curve]

## CC(C)N(Cc1nc(-c2ccccc2)no1)C(=O)COc1ccccc1
  cell number change: 137%
[2]
  AC50: 9.2 µM [rising, partial curve]
[1]
  AC50: 7.31 µM [rising, partial curve]

## CCOc1ccccc1C(=O)OCC(=O)NCCc1ccc(OC)cc1
  cell number change: 40.5%
[2]
  AC50: 0.0164 µM [rising, full curve, poor fit]
[1]
  AC50: 25.9 µM [rising, partial curve, poor fit]

## CN(C1=C(N2CCCCC2)C(=O)c2ccccc2C1=O)c1ccccc1
  cell number change: -88.7%
[2]
  AC50: 4.61 µM [falling, full curve]
[1]
  AC50: 16.4 µM [falling, partial curve]

## NC(=O)c1c(NC(=O)c2ccc([N+](=O)[O-])o2)sc2c1CCCC2
  cell number change: -0.952%
[2]
  AC50: 0.0731 µM [rising, partial curve, poor fit]

## CC(C)CNC(=O)C(=O)NCc1ccccc1
  cell number change: 8.1%
[1]
  AC50: 0.731 µM [rising, partial curve]

## Cc1cccc(NC(=O)c2ccc3c(=O)n(CC4CCCO4)c(=S)[nH]c3c2)c1 (stereo not drawn)
[1]
  AC50: 2.59 µM [falling, full curve]

## Cc1cccc(N2CCN(c3ccc(C(N)=O)cc3[N+](=O)[O-])CC2)c1C
  cell number change: 18.4%
[1]
  AC50: 6.51 µM [falling, single point]

## Cc1ccc(NC(=O)c2cccc(S(=O)(=O)N3CCCCC3)c2)cc1
  cell number change: -11.8%

## Cc1[nH][nH]c(=O)c1C=NCc1cccc(C(F)(F)F)c1
  cell number change: -19.1%

## CCOc1ccc(Br)cc1S(=O)(=O)N1CCC(C(N)=O)CC1
  cell number change: 82.4%
[2]
  AC50: 20.6 µM [rising, single point]

## CCc1nnc(NS(=O)(=O)c2ccc(N3C(=O)C4CC=C(Cl)CC4C3=O)cc2)s1 (stereo not drawn)
  cell number change: 6.79%
[1]
  AC50: 29.1 µM [rising, single point]

## CCOC(=O)CSc1nc(-c2ccncc2)ccc1C#N
  cell number change: 0.6%
[1]
  AC50: 0.326 µM [rising, partial curve, poor fit]

## CSc1nc(-c2ccccc2)nc(SC)c1C(C)=O
  cell number change: 1.35%
[1]
  AC50: 29.1 µM [rising, single point]

## O=C(Nc1ccncc1)c1ccc(Cl)c(S(=O)(=O)N2CCCCC2)c1
  cell number change: -53.8%
[2]
  AC50: 20.6 µM [falling, partial curve]
[1]
  AC50: 3.66 µM [falling, partial curve, poor fit]

## O=C(OCCN1CCCCC1)c1cc2ccccc2o1
  cell number change: 36.1%
[2]
  AC50: 32.6 µM [rising, single point]
[1]
  AC50: 5.8 µM [rising, single point]

## O=C(CN1CCCC1)NC(=O)NC1CCCC1
  cell number change: 60.9%
[2]
  AC50: 29.1 µM [rising, single point]

## OCCN1CCN(C(=S)c2ccc(Cl)c(Cl)c2)CC1
  cell number change: -165%
[2]
  AC50: 29.1 µM [falling, single point]

## CC(C)N(C(=NCc1ccccc1)NC(=O)c1ccccc1)C(C)C
[1]
  AC50: 32.6 µM [rising, single point]

## COc1ccc(OC)c(NC(=O)CS(=O)(=O)Cc2ccccc2)c1
  cell number change: 0.552%
[1]
  AC50: 29.1 µM [rising, single point]

## O=C(Nc1ccc(S(=O)(=O)Nc2nccs2)cc1)C1CC(=O)N(c2ccc(Cl)cc2)C1 (stereo not drawn)
  cell number change: 16.7%

## Cc1ccc2c(COC(=O)c3ccccc3F)cc(=O)oc2c1
  cell number change: 45.7%
[2]
  AC50: 25.9 µM [rising, single point]
[1]
  AC50: 29.1 µM [rising, single point]

## CCN=C1S/C(=C\c2cn(CC)c3ccccc23)C(=O)N1CC
  cell number change: 18.1%
[1]
  AC50: 1.84 µM [rising, full curve]

## CC(C)N1CCN(Cc2cccn2-c2nccs2)CC1CCO (stereo not drawn)
  cell number change: 7.6%
[1]
  AC50: 16.4 µM [falling, single point]

## CCCCC(=O)Nc1ccc(NC(=O)C2CC2)cn1
  cell number change: 24.8%
[1]
  AC50: 13 µM [rising, partial curve]
